PubChem BioAssay AID1671195, Yale University – 2021
Screen: 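Knockdowns that increase or decrease uptake of fluorescent LDL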 (primary screen). Cells: human Huh7 hepatoma cells. Knock-down reagent: siRNA pool against human genes, 18 nM. Time to read-out: about 2 to 2.5 days of knockdown, then 8 h LDL uptake. Treatment: DiI-labelled LDL at 30 µg/ml for 8 h, in lipoprotein-deficient serum medium. Read-out: 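Per-cell DiI-LDL intensity by automated imaging; well means scaled to the plate median and given as a robust z-score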. Reading the numbers: robust z-score: higher = more LDL uptake after knockdown. Hit rule: 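a gene counts as active if at least two replicate z-scores exceed ±2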.
The whole screen tested about 22,000 reagents; shown is an unselected part. Of all reagents, about 1,510 (6.9%) got an active call. 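Active includes knockdowns raising or lowering LDL uptake; positive z-scores mean more uptake, negative mean less.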

| Gene | robust z-score, replicate 1 | robust z-score, replicate 2 | robust z-score, replicate 3 | Call |
| --- | --- | --- | --- | --- |
| BBS5 | -0.423 | -0.377 | -0.442 | inactive |
| TBC1D32 | 1.27 | 0.808 | 0.265 | inactive |
| BTF3P13 | 1.18 | 0.211 | 0.15 | inactive |
| PSMA7 | -0.966 | -1.3 | -1.31 | inactive |
| MED16 | -1.22 | -0.357 | -1.38 | inactive |
| FUT4 | 0.663 | 3.21 | 1.16 | inactive |
| HOOK2 | 0.545 | 0.0432 | 0.468 | inactive |
| BRF1 | 0.22 | 0.238 | 0.143 | inactive |
| TMEM107 | -0.485 | -0.507 | 0.197 | inactive |
| TTC32 | 1.14 | 0.27 | -0.976 | inactive |
| CD4 | -1.14 | 1.15 | -0.675 | inactive |
| LOC339997 (retired record) | -0.56 | -0.372 | -0.304 | inactive |
| OR51B2 | 0.347 | -0.522 | -0.0508 | inactive |
| LOC389087 (retired record) | -0.0675 | 0.0687 | 0.279 | inactive |
| DPYSL2 | -0.335 | -0.581 | -0.355 | inactive |
| KRTAP13-2 | 1.16 | 1.56 | 1.15 | inactive |
| FBXO3 | 0.891 | 1.9 | 0.888 | inactive |
| LSM14A | -0.757 | -0.783 | 0.839 | inactive |
| KLHL13 | 0.000542 | 0.253 | 0.882 | inactive |
| LOC400948 (retired record) | -0.693 | -0.577 | -0.871 | inactive |
| LOC442368 (retired record) | -2.46 | -2.83 | -2.18 | active |
| SELP | -0.432 | -1.03 | -0.957 | inactive |
| FHIP2B | -0.264 | -0.534 | -0.536 | inactive |
| PTH2R | -0.21 | -0.29 | -0.682 | inactive |
| RPS10P22 | 0.551 | -2.43 | 0.513 | inactive |
| ADNP | 1.35 | -0.606 | 1.47 | inactive |
| TRIM38 | -0.0994 | -0.166 | 0.616 | inactive |
| CCNE1 | -1.13 | -0.782 | -1.23 | inactive |
| CFAP20 | 0.535 | -0.909 | 0.104 | inactive |
| CRELD1 | -0.722 | -0.211 | -0.0751 | inactive |

Records listed so far whose gene name starts with B or b (3):
| Gene | robust z-score, replicate 1 | robust z-score, replicate 2 | robust z-score, replicate 3 | Call |
| --- | --- | --- | --- | --- |
| BBS5 | -0.423 | -0.377 | -0.442 | inactive |
| BTF3P13 | 1.18 | 0.211 | 0.15 | inactive |
| BRF1 | 0.22 | 0.238 | 0.143 | inactive |

Continued:
| Gene | robust z-score, replicate 1 | robust z-score, replicate 2 | robust z-score, replicate 3 | Call |
| --- | --- | --- | --- | --- |
| LOC390828 (retired record) | 1.01 | 1.22 | 1.93 | inactive |
| EGFL6 | 0.238 | -1.87 | 1.3 | inactive |
| NT5M | 0.36 | 0.581 | 0.292 | inactive |
| NSG1 | 0.0551 | 0.165 | 0.559 | inactive |
| MBLAC2 | 0.131 | -1.03 | 0.157 | inactive |
| LOC389129 (retired record) | -0.284 | -0.0985 | -0.174 | inactive |
| MEAK7 | -1.48 | -2 | -2.39 | active |
| TMEM132D | 0.816 | 1.03 | 0.852 | inactive |
| ZNF181 | -1.31 | -1.45 | -1.26 | inactive |
| GEMIN6 | 0.622 | 0.347 | 0.963 | inactive |
| PGAM1 | -0.279 | 0.0522 | -0.397 | inactive |
| SLC41A2 | -1.17 | -1.28 | -1.41 | inactive |
| TRRAP | -1.96 | -1.26 | -2.22 | active |
| OR6N2 | -1.88 | -1.72 | -1.63 | inactive |
| DPY19L2P3 | -1.95 | -1.93 | -1.19 | inactive |
| TXNDC9P1 | 1.36 | 1.48 | 1.55 | inactive |
